PubChem BioAssay AID1259308 | NCATS | 2017

- Aim: 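Genes whose loss raises luciferase production in HEK293 cells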 (primary screen)
- Cells: human HEK293 embryonic kidney cells stably expressing firefly luciferase (HEK-CMV-Luc2-Hygro)
- Reagent: single siRNA against human genes, 0.8 pmol siRNA per well
- Timing: 72 h
- Read-out: 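Luciferase light (ONE-Glo) measured on one replicate plate set and viability (CellTiter-Glo) on the other, scaled to a negative control siRNA, with robust z-scores and luciferase per cell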
- Reading the numbers: total luciferase, z-score: higher = more reporter protein produced
- Rule for the call: 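An siRNA counts as active if its total luciferase robust z-score exceeds 3; genes with two or more such siRNAs out of three were retested with fresh siRNAs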
- Meaning of the calls: active = raised luciferase; inactive = no rise
In all, the deposit lists about 59,000 reagents; below is a part drawn at random. About 1,510 of them (2.6%) were called active. 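Calls use total luciferase alone and ignore viability, so some active siRNAs may act by altering cell number.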 A number with no mark means an inactive call. Reagents against one gene are numbered here. Further read-outs or replicates are left out here.

For YRDC #1, what was measured?
total luciferase, z-score: -0.302

With YRDC #2, what was measured?
total luciferase, z-score: 0.971

What did the screen give for YRDC #3?
total luciferase, z-score: 0.282

How did the screen score NR2F2 #1?
total luciferase, z-score: 0.393

Which result is listed for NR2F2 #2?
total luciferase, z-score: 0.0216

For NR2F2 #3, what was measured?
total luciferase, z-score: 1.31

What did the screen give for CHD1 #1?
total luciferase, z-score: -0.753

How did the screen score CHD1 #2?
total luciferase, z-score: -1.26

How did the screen score CHD1 #3?
total luciferase, z-score: 0.0288

What is on record for MBTPS1 #1?
total luciferase, z-score: 1.6

For MBTPS1 #2, how do the results read?
total luciferase, z-score: 0.186

With MBTPS1 #3, what does the deposit list?
total luciferase, z-score: -1.05

For RCBTB2 #1, what does the deposit list?
total luciferase, z-score: 0.0232

For RCBTB2 #2, what was measured?
total luciferase, z-score: -0.573

How did the screen score RCBTB2 #3?
total luciferase, z-score: 0.21

Laid out differently: results already given
target | siRNA no. | total luciferase, z-score
YRDC | 1 | -0.302
YRDC | 2 | 0.971
YRDC | 3 | 0.282
NR2F2 | 1 | 0.393

The list goes on.
With ATP8B1 #1, what does the deposit list?
total luciferase, z-score: 0.324

Which result is listed for ATP8B1 #2?
total luciferase, z-score: -1.53

With ATP8B1 #3, what does the deposit list?
total luciferase, z-score: 0.0921

For CSRP2 #1, what was measured?
total luciferase, z-score: 0.25

How did the screen score CSRP2 #2?
total luciferase, z-score: -0.873

For CSRP2 #3, how do the results read?
total luciferase, z-score: -1.17

For NUCB1 #1, how do the results read?
total luciferase, z-score: 0.0425

For NUCB1 #2, what does the deposit list?
total luciferase, z-score: 0.832

With NUCB1 #3, what does the deposit list?
total luciferase, z-score: -1.06

For GRIP1 #1, what was measured?
total luciferase, z-score: 2.35

What did the screen give for GRIP1 #2?
total luciferase, z-score: 1.04

For GRIP1 #3, how do the results read?
total luciferase, z-score: -0.559

Which result is listed for TIFA #1?
total luciferase, z-score: -1.67

What is on record for TIFA #2?
total luciferase, z-score: -0.185

For TIFA #3, what does the deposit list?
total luciferase, z-score: 0.121

What did the screen give for EPHA2 #1?
total luciferase, z-score: -0.344

With EPHA2 #2, what was measured?
total luciferase, z-score: 0.251

What is on record for EPHA2 #3?
total luciferase, z-score: -0.107
